Drawing on the odorant receptor screen of Mainland et al. (2015), this text covers odorant receptor activation for 27 compounds.

Where “and” joins values, the source holds several entries; their conditions need not be identical. Identical values can stand only once. This is one part of the list. Each value is one well over the wells without odorant, computed here; the data are noisy.

Holding throughout (assay): odorant receptor activation (CRE luciferase / Renilla) (fold of no-odor wells); higher = more activation
Settings in all cases: 100 µM

Experiment [1] has as its system OR1J2 clone 1443.
The subject of experiment [2] is OR1J4 clone 1429.
Experiment [3] has as its system OR1K1 clone 1315.
Experiment [4] deals with OR1L1 clone 1379.
The test system of experiment [5] is OR1L3 clone 1090.
Experiment [6] relates to OR1L4 G234R clone 1102.
In experiment [7] the test system is OR1L6 Q23K/C150Y/I215T/R221Q/M223I/G234R clone 1539.
Experiment [8] has as its system OR1L8 clone 1088.
In experiment [9] the test system is OR1M1 clone 1198.
For experiment [10], the system named is OR1N1 clone 1463.

On to `O=C1CCCCCCCCCCCCCCO1` [pentadecalactone], for which the odorant receptor activation in [1] came to 1.38; in experiment [2], 1.16; in experiment [3] it was 1.17; in [4] it was 1.42; in [5] it was 1.18; in [6], 0.912. Moreover, the odorant receptor activation in experiment [7] stood at 0.805; in [8], 1.04; in experiment [9] it was 0.918; in experiment [10], 1.13.

As to `CC1CCC(C(C)C)C(O)C1` (single isomer, unassigned; (-)) [(-)-menthol], the odorant receptor activation in [1] is 1.14; in experiment [2], 1.35; in [3], 0.696; in experiment [4], 1.14; in experiment [5], 30.4; in experiment [6], 22.5. In addition, the odorant receptor activation came to 2.88 in [7], 1.71 in experiment [8], 1.42 in experiment [9] and 3.44 in experiment [10].

Take `CC(=O)OC1CC2CCC1(C)C2(C)C` (stereo not drawn) [isobornyl acetate]: the odorant receptor activation was 0.717 in experiment [1]; 0.859 in experiment [2]; 0.81 and 0.861 in experiment [3]; 0.802 in [4]; 1.09 in [5]; 0.948 in experiment [6]. For the same compound, the odorant receptor activation in experiment [7] is 1.09 and 1.08; in [8], 1.24; in experiment [9], 1.36; in [10], 1.01 and 1.22.

As for `COc1cc(C=O)ccc1O` [vanillin], the odorant receptor activation in [1] came out at 1.07; in experiment [2], 1.08; in [3], 1.65; in experiment [4], 1.25; in experiment [5], 1.21; in experiment [6] it was 0.954. The odorant receptor activation was 0.896 in experiment [7], 1.01 in experiment [8], 1.32 in experiment [9] and 1.07 in experiment [10].

Turning to `CC(=O)OC(C)(C)C1CC=C(C)CC1` (stereo not drawn) [terpinyl acetate], the odorant receptor activation in experiment [1] turned out to be 1.12; in [2], 1.02; in [3], 1.13; in experiment [4], 1.02; in [5] it was 2.17; in experiment [6], 1.36. Moreover, the odorant receptor activation was determined as 1.18 in experiment [7], 1.39 in experiment [8], 1.47 in [9] and 1.21 in [10].

With `COc1ccccc1O` [guaiacol], the odorant receptor activation in [1] was 0.558; in experiment [2], 0.807; in experiment [3] it was 1.21 and 0.926; in experiment [4], 0.752; in [5], 1.66; in experiment [6] it was 1.54. Also, the odorant receptor activation in experiment [7] is 0.801 and 0.963; in [8] it was 1.02; in experiment [9] it was 1.26; in experiment [10] it was 1.16 and 0.982.

For the compound `CC12C=CCC1C1CCC3CC(=O)CCC3(C)C1CC2` (stereo not drawn) [androstenone], the odorant receptor activation in experiment [1] stood at 1.06; in experiment [2] it was 1.34; in [3], 1.21; in [4] it was 0.732; in experiment [5] it was 16.9; in experiment [6], 13.5. Moreover, the odorant receptor activation in experiment [7] was 1.14; in experiment [8] it was 1.21; in experiment [9] it was 4.61; in [10], 0.828.

Consider `C=CCSCC=C` [diallyl sulfide], for which the odorant receptor activation was 1.32 in experiment [1]; 1.3 in experiment [2]; 0.992 in experiment [3]; 1.24 in experiment [4]; 1.12 in experiment [5]; 1.18 in [6]. For the same compound, the odorant receptor activation was 0.985 in [7], 0.921 in [8], 1.24 in [9] and 1.39 in [10].

Take `CCCCO` [1-butanol]: the odorant receptor activation came out at 1.05 in [1]; 1.49 in experiment [2]; 0.903 in experiment [3]; 0.822 in experiment [4]; 23.3 in experiment [5]; 29.2 in experiment [6]. Moreover, the odorant receptor activation in experiment [7] came to 1.32; in experiment [8], 1.65; in experiment [9] it was 1.05; in [10], 0.87.

Take `CCCCCCC=O` [heptaldehyde]: the odorant receptor activation in experiment [1] was 0.974 and 0.518; in experiment [2], 1.03 and 0.806; in experiment [3], 0.774 and 1.02 and 0.989; in experiment [4], 0.831 and 0.757; in experiment [5] it was 1.17 and 1.43; in experiment [6], 1.01 and 1.45. Moreover, the odorant receptor activation was 0.753 and 1.21 in experiment [7]; 1.58 and 0.909 in experiment [8].

Turning to `CC(C)C=O` [isobutyraldehyde], the odorant receptor activation in [1] was 0.752; in [2] it was 0.901; in experiment [3], 0.796 and 0.928; in experiment [4], 0.768; in [5], 7.63; in experiment [6] it was 2.87. The odorant receptor activation in [7] was 1.13 and 0.921; in experiment [8], 0.852; in experiment [9], 1.13; in experiment [10], 1.09 and 1.12.

For `CC(C)=CCCC(C)=CC=O` [citral], the odorant receptor activation in experiment [1] worked out at 0.299; in experiment [2] it was 0.308; in [3] it was 0.797; in [4], 0.288; in experiment [5], 1.05; in experiment [6], 1.31. In addition, the odorant receptor activation in [7] was found to be 1.12; in experiment [8], 1.43; in experiment [9], 0.914; in experiment [10], 1.24.

Regarding `CC(C)(C)c1ccc(CCC=O)cc1` [bourgeonal], the odorant receptor activation came to 0.169 in experiment [1]; 0.169 in experiment [2]; 0.591 in experiment [3]; 0.187 in experiment [4]; 0.847 in experiment [5]; 0.792 in experiment [6]. In addition, the odorant receptor activation in experiment [7] amounted to 1.11; in experiment [8] it was 1.32; in experiment [9], 0.746; in experiment [10], 1.11.

Consider `CCCCCCCCC=O` [nonyl aldehyde], for which the odorant receptor activation in experiment [1] came to 1.02; in experiment [2] it was 0.858; in experiment [3] it was 0.302; in [4], 0.961; in experiment [5], 0.894; in experiment [6] it was 0.88. The odorant receptor activation in experiment [7] came to 0.858; in experiment [8], 1.02; in experiment [9], 1.23; in [10], 1.23.

With `c1ccc(Oc2ccccc2)cc1` [diphenyl ether], the odorant receptor activation in [1] was 1.04; in [2], 1.01; in experiment [3], 1.01; in experiment [4], 1.14; in experiment [5] it was 1.01; in experiment [6], 1.17. In addition, the odorant receptor activation in [7] was 0.872; in experiment [8] it was 1.05; in experiment [9] it was 1.34; in experiment [10], 1.24.

For `CCCCCCCCOC(C)=O` [octyl acetate], the odorant receptor activation amounted to 0.95 in experiment [1]; 0.862 in experiment [2]; 0.325 in experiment [3]; 0.982 in experiment [4]; 1.21 in experiment [5]; 1.07 in experiment [6]. Also, the odorant receptor activation turned out to be 0.972 in [7], 0.855 in [8], 1.15 in experiment [9] and 1.08 in experiment [10].

With `O=CCc1ccccc1` [phenyl acetaldehyde], the odorant receptor activation worked out at 1.4 in [1]; 1.38 in [2]; 1.55 in experiment [3]; 1.74 in experiment [4]; 1.53 in [5]; 1.31 in [6]. Further, the odorant receptor activation in experiment [7] was 0.903; in experiment [8], 1.13; in experiment [9], 1.07; in [10], 1.43.

Take `CC12C=CCC1C1CCC3=CC(=O)CCC3(C)C1CC2` (stereo not drawn) [androstadienone]: the odorant receptor activation is 0.738 in [1]; 1.01 in [2]; 0.847 and 0.924 in experiment [3]; 0.859 in experiment [4]; 1.4 in [5]; 1.8 in experiment [6]. Also, the odorant receptor activation was 0.683 and 1.25 in experiment [7]; 5.56 in experiment [8]; 1.24 in experiment [9]; 1.01 and 1.29 in [10].

`COC(=O)c1ccccc1O` [methyl salicylate]: the odorant receptor activation stood at 1.31 in experiment [1]; 1.02 in experiment [2]; 0.287 in experiment [3]; 1 in experiment [4]; 1.12 in experiment [5]; 0.994 in experiment [6]. The odorant receptor activation in experiment [7] turned out to be 0.92; in experiment [8], 0.904; in [9] it was 0.811; in experiment [10] it was 1.12.

As for `CCCCCCCC=O` [octyl aldehyde], the odorant receptor activation in experiment [1] was found to be 0.825; in [2], 0.718; in experiment [3] it was 0.28; in experiment [4], 0.632; in [5], 1.15; in experiment [6], 1.08. Moreover, the odorant receptor activation in [7] was 0.997; in experiment [8] it was 1.07; in experiment [9], 1.18; in [10] it was 1.02.

Regarding `COc1cc(C)ccc1O` [2-methoxy-4-methylphenol], the odorant receptor activation in [1] amounted to 1.08; in experiment [2] it was 1.06; in [3], 1.24; in experiment [4], 0.807; in [5] it was 17.2; in experiment [6], 14. Besides, the odorant receptor activation in experiment [7] was found to be 0.966; in [8] it was 1.18; in experiment [9], 1.12; in [10], 0.847.

For the compound `C=C(C)C1CC=C(C)C(=O)C1` (stereo not drawn) [r-carvone], the odorant receptor activation was found to be 1.4 in experiment [1]; 1.21 in experiment [2]; 1.2 in [3]; 1.6 in experiment [4]; 1.28 in experiment [5]; 0.775 in experiment [6]. Moreover, the odorant receptor activation in experiment [7] was 0.915; in [8], 0.899; in experiment [9], 1.07; in experiment [10] it was 0.795.

Turning to `CC/C=C\CCO` [cis-3-hexen-1-ol], the odorant receptor activation turned out to be 0.295 in experiment [1]; 0.289 in experiment [2]; 0.77 in [3]; 0.266 in [4]; 0.901 in experiment [5]; 1.03 in experiment [6]. The odorant receptor activation in experiment [7] was 0.987; in experiment [8] it was 1.19; in [9], 1; in [10] it was 0.888.

`CC12CCC(C1)C(C)(C)C2=O` (stereo not drawn) [fenchone]: the odorant receptor activation in experiment [1] was 1.01; in [2], 0.944; in experiment [3] it was 0.902; in [4], 0.971; in experiment [5], 0.97; in experiment [6], 1.1. Besides, the odorant receptor activation is 0.887 in [7], 1.06 in experiment [8], 1.21 in [9] and 1.49 in experiment [10].

Turning to `CC(C)C(=O)O` [isobutyric acid], the odorant receptor activation was 0.575 in experiment [1]; 0.823 in [2]; 1.15 and 0.855 in experiment [3]; 0.744 in [4]; 1.29 in experiment [5]; 0.945 in [6]. Besides, the odorant receptor activation was 0.957 and 0.79 in experiment [7]; 1.49 in experiment [8]; 1.4 in [9]; 1.05 and 0.97 in experiment [10].

As to `C=CCc1ccc(O)c(OC)c1` [eugenol], the odorant receptor activation in [1] is 1.34 and 1.14; in experiment [2] it was 1.4 and 1.39; in experiment [3], 2.19 and 1.42; in experiment [4], 1.28 and 1.38; in [5] it was 2.23 and 1.27; in [6] it was 1.97 and 1.58. The odorant receptor activation in experiment [7] was 0.793; in experiment [8], 1.72 and 1.43; in experiment [9], 1.98 and 1.86; in experiment [10] it was 2.62 and 1.09 and 1.18.

On to `O=C1CCCCCCCCCCCC(=O)OCCO1` [ethylene brassylate], for which the odorant receptor activation in [1] amounted to 1.69; in experiment [2], 1.51; in experiment [3], 1.36; in experiment [4], 2.37; in experiment [5], 1.31; in experiment [6] it was 1.69. For the same compound, the odorant receptor activation stood at 0.831 in experiment [7], 1.65 in experiment [8], 2.18 in experiment [9] and 1.75 in [10].
